The results in this text go back to article PMC9389594.

Numbering of substitutions follows the chain as printed. These are yes or no findings as the source states them, for the method shown. In cells and extracts the contact can be indirect. For some assays here: Binding calls can cover weak binding; strength is not graded here. Tags and fused reporters may be left off the sequences shown.

One test has as its target T1, 6xHis-tagged FKBP4 (UniProt Q02790).
T1 sequence: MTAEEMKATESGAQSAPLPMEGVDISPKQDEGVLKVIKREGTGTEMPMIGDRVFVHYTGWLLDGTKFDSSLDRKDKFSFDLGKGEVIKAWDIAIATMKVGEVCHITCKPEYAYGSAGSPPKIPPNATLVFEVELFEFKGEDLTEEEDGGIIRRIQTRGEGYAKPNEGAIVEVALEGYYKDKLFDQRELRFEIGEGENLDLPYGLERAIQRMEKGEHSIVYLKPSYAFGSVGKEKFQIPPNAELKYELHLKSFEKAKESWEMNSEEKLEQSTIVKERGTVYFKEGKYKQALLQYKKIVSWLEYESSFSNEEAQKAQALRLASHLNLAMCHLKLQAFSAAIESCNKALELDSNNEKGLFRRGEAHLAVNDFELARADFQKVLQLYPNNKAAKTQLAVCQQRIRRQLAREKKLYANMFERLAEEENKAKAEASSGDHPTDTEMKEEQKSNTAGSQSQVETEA
Briefly: co-IP; immunoprecipitation of 6xHis-tagged FKBP4 or FKBP4-K354A with anti-6xHis-tag antibody from transduced HCT116 cells treated with siFKBP4_3'UTR; Western blot. On the technique in general: Immunoblotting shows a protein as a band on a membrane.

Test [1] concerns the target T2, 6xHis-tagged FKBP4-K354A mutant (UniProt Q02790).
T2 sequence: T1 sequence with K354A
The description is as above.

Consider HSP70 (human (endogenous in HCT116)), for which the results for the binding result (in the test with 6xHis-tagged FKBP4; in test [1]) were “binds” and “no binding”, respectively.
